The target in the assay is T1, bovine alpha-lactalbumin (α-LA), calcium-depleted (bovine), P00711.
T1 chain: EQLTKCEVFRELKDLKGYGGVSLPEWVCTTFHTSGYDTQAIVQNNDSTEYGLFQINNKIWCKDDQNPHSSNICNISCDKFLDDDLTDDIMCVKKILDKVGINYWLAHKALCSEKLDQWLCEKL
As to the kind of experiment: native gel or EMSA; 12% discontinuous native PAGE, stacking gel pH 6.8, resolving gel pH 8.8, Coomassie stain; both purified. The conditions noted are these: remark: other sources report otherwise.

These are yes or no findings as the source states them, for the method shown. Some entries that bind do so weakly or less than the wild type.

B1: bovine alpha-lactalbumin (α-LA), calcium-depleted, P00711 20-142 (natural protein)
chain: T1 chain
B1: the binding result is given as “binds”.

Source of the values: article PMC7806473.
